## Screening data, single-dose tests

From ChEMBL document CHEMBL3988442, “University of Dundee, Small-Polar-MMV Screening Library” (2021).

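Phenotypic screen: M. tuberculosis growth, glucose 7H9 medium, 3 days; the read-out is not stated. Tested at 50 µM. Direction is inferred from retests: higher values go with more growth inhibition. About 69,000 compounds were tested under these conditions; 1.1% (about 760) showed 50% or more at least once.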

Values are the deposited “Percent Effect”, in %.
The record does not define 0% and 100%; most values in the screen are far below 50% and negative numbers occur (in some assays of this library far below -100).
This is an unselected part of the compounds tested.
Two or more numbers in one place are separate tests of the same structure; such repeats can differ widely.

CCCC(=O)N1CCC(c2nn(C)c(=O)n2-c2ccccc2)CC1 read 6.424%.
O=C(NC1CCC(C(=O)N2CCSCC2)CC1)N1CCOCC1 (stereo not given) read 7.21% & 5.725%.
Cn1cccc1C(=O)NC(C)(C(N)=O)c1cccc(C(F)(F)F)c1 (stereo not given) read 5.326%.
O=C(NC1CCCC1)c1nc2c(o1)CN(CCO)C2 read 35.95% & 4.801%.
COc1ccccc1C(C)(C)NCc1ccc(C)o1 read 5.225%.
Cc1cc(C[C@@H]2COC[C@H]2NCc2ccc(Cl)c(Cl)c2)on1.O=C(O)CC(O)(CC(=O)O)C(=O)O read 35.86%.
CNC(=O)CN1C(=O)CCC12CCCN(CCc1ccccc1)C2 (stereo not given) read 17.16%.
CN(Cc1nc(Cc2cccc(C(F)(F)F)c2)no1)C(C1CC1)C1CC1 read 48.28% & 22.12%.
CCc1ccc(CN(C/C=C/c2ccccc2)CCOC)nc1 read 55.27%.
Cc1ccc(-c2nc(CNCC3CN(C)CCO3)co2)cc1 (stereo not given) read 31.05% & 11.36%.
CNS(=O)(=O)c1ccc(C(=O)N2CCCC2c2cnn(C)c2)o1 (stereo not given) read 19.83%.
NC(=O)c1ccc(NC(=O)c2ccncc2Cl)cn1 read 20.82%.
Cc1noc(C)c1C(=O)N1CCCN(C)c2ccc(Cl)cc21 read 32.34%.
CCN(C)Cc1n[nH]c(=O)n1-c1cc(F)ccc1C read 11.47% & -0.3393%.
Cc1cnn(CC(C)NCc2ccc(OCc3ccncc3)cc2)c1 (stereo not given) read -37.95%.
COCc1c(C(=O)O)nnn1Cc1cccc(C(F)(F)F)c1 read -11.32%.
CC(C)c1noc(CS(=O)(=O)CC(=O)NCc2ccccc2)n1 read -4.3%.
CCCn1ccnc1CN1CCc2[nH]cnc2C1Cc1ccccc1 (stereo not given) read 18.36%.
NC(=O)CCn1ccc(NCc2cc(F)ccc2Br)n1 read 7.043% & 6.2%.
Cc1noc(C)c1CN(C)C(=O)Nc1cnn(CC2CCCO2)c1 (stereo not given) read -10.48% & 3.936%.
CN(CCc1ccccn1)C(=O)CCC1CCCN(c2ccncc2)C1 (stereo not given) read -0.599%.
CCCc1nc(C)cc(NCc2ccc(S(N)(=O)=O)cc2)n1 read 3.549% & -3.69%.
Cc1cc(Br)c(O)c(C(=O)N2CCC(CN3CCCCCC3)CC2)c1 read 18.67%.
COC(=O)CCn1ccc(=O)c2ccccc21 read 9.731%.
O=C(NCCCn1nc2ccccn2c1=O)Nc1ccccc1Cl read 0.8332%.
Cc1nc(C)n(CC2CN(CCOc3cccc(C#N)c3)CCO2)n1 (stereo not given) read 18.88%.
c1cc(CN2CCSC3(CCCCC3)C2)no1 read -8.225% & 5.782%.
Cc1cc(C)n(C2CCN(S(=O)(=O)N3CCOCC3)CC2)n1 read -17.63%.
CCn1cc(NC(=O)C2CCN(CC(=O)N3CCOCC3)CC2)cn1 read -6.745%.
CCc1nccn1C1CCCN(C(=O)c2cnc3onc(C)c3c2)C1 (stereo not given) read 20.16%.
CC1CN(CC2CCCCC2)CCN1c1ccc2nncn2n1 (stereo not given) read -43.33%.
Cc1ccc2oc(N3CCN(CC(=O)NC(C)C)CC3)nc2c1 read 6.792%.
CC(O)CNC(=O)CCc1nc2ncccc2[nH]1 (stereo not given) read 1.555%.
COc1cccc2c1OCC(C(=O)N1CCSCC1)C2 (stereo not given) read -26.42%.
Cc1ccccc1S(=O)(=O)CCOC(C)C read 6.19% & 12.1%.
CC(=O)N1CCC(c2cc(Nc3ncccn3)nc(C)n2)C1 (stereo not given) read 10.01%.
CC(C)c1nc(CN(C)CC2CCN(CCO)CC2)no1 read -7.975%.
CC(=O)Nc1ccc(C(=O)N2CCOc3nc(C)ccc32)cc1 read 8.128%.
O=C1Nc2ccccc2C1C1CCN(C(=O)C2CC2)CC1 (stereo not given) read 0.4605%.
Cn1cc(C2(C)CN(Cc3ccc(Cl)c(F)c3)CCO2)cn1 (stereo not given) read 4.111% & 2.315%.
NCc1cn(-c2ccccc2C(=O)NCc2ccccc2)cn1 read 28.4%.
Cc1cccc2c1nc(CCO)n2-c1ccc(NS(C)(=O)=O)nc1 read 14.65%.
CN(C)CCN1CCOCC2(C1)CN(Cc1nccs1)CCO2.O=C(O)C(F)(F)F.O=C(O)C(F)(F)F.O=C(O)C(F)(F)F (stereo not given) read -32.42% & -8.694%.
Cn1ncc2c(=O)[nH]c(CN3CCCC3c3cccs3)nc21 (stereo not given) read -13.55%.
COc1ccccc1N1CCC(N2CCOCC(CO)C2)CC1 (stereo not given) read -22.1%.
CCC[C@H]1CN(S(=O)(=O)N(C)Cc2ccccc2)C[C@@H]1N read 22.58%.
CCn1cc(NC(=O)N2CCN(C(=O)Oc3ccccc3)CC2)cn1 read 16.9% & 0.7741%.
CC(O)CN1CCC(CN(C)Cc2cccc(C(=O)N(C)C)c2)CC1 (stereo not given) read -7.673% & -44.04%.
CC(C)c1cc(C(=O)N(c2ccc(F)cn2)C2CCOCC2)nn1C read 20.6%.
COCCn1cc2c(n1)C(CNS(C)(=O)=O)OCC2 (stereo not given) read 8.109%.
c1ccc(C2CCN(c3cncc(-n4cccn4)n3)CC2)cc1 read 13.3%.
Cc1cc(-c2nn(C)c(Cl)c2CN2CCOC(C(=O)O)C2)no1 (stereo not given) read -32.76%.

Some entries from above, unchanged:

- CCc1ccc(CN(C/C=C/c2ccccc2)CCOC)nc1 : 55.27%
- O=C(NCCCn1nc2ccccn2c1=O)Nc1ccccc1Cl : 0.8332%
- c1cc(CN2CCSC3(CCCCC3)C2)no1 : -8.225% & 5.782%
- CC(O)CNC(=O)CCc1nc2ncccc2[nH]1 (stereo not given) : 1.555%